# Some of the results follow.
# Chains of the proteins cited; added tags and fusions are not shown. Lines headed by an entry give the natural chain unless they say otherwise; changes in a name come on top.
# UniProt Q9Y490: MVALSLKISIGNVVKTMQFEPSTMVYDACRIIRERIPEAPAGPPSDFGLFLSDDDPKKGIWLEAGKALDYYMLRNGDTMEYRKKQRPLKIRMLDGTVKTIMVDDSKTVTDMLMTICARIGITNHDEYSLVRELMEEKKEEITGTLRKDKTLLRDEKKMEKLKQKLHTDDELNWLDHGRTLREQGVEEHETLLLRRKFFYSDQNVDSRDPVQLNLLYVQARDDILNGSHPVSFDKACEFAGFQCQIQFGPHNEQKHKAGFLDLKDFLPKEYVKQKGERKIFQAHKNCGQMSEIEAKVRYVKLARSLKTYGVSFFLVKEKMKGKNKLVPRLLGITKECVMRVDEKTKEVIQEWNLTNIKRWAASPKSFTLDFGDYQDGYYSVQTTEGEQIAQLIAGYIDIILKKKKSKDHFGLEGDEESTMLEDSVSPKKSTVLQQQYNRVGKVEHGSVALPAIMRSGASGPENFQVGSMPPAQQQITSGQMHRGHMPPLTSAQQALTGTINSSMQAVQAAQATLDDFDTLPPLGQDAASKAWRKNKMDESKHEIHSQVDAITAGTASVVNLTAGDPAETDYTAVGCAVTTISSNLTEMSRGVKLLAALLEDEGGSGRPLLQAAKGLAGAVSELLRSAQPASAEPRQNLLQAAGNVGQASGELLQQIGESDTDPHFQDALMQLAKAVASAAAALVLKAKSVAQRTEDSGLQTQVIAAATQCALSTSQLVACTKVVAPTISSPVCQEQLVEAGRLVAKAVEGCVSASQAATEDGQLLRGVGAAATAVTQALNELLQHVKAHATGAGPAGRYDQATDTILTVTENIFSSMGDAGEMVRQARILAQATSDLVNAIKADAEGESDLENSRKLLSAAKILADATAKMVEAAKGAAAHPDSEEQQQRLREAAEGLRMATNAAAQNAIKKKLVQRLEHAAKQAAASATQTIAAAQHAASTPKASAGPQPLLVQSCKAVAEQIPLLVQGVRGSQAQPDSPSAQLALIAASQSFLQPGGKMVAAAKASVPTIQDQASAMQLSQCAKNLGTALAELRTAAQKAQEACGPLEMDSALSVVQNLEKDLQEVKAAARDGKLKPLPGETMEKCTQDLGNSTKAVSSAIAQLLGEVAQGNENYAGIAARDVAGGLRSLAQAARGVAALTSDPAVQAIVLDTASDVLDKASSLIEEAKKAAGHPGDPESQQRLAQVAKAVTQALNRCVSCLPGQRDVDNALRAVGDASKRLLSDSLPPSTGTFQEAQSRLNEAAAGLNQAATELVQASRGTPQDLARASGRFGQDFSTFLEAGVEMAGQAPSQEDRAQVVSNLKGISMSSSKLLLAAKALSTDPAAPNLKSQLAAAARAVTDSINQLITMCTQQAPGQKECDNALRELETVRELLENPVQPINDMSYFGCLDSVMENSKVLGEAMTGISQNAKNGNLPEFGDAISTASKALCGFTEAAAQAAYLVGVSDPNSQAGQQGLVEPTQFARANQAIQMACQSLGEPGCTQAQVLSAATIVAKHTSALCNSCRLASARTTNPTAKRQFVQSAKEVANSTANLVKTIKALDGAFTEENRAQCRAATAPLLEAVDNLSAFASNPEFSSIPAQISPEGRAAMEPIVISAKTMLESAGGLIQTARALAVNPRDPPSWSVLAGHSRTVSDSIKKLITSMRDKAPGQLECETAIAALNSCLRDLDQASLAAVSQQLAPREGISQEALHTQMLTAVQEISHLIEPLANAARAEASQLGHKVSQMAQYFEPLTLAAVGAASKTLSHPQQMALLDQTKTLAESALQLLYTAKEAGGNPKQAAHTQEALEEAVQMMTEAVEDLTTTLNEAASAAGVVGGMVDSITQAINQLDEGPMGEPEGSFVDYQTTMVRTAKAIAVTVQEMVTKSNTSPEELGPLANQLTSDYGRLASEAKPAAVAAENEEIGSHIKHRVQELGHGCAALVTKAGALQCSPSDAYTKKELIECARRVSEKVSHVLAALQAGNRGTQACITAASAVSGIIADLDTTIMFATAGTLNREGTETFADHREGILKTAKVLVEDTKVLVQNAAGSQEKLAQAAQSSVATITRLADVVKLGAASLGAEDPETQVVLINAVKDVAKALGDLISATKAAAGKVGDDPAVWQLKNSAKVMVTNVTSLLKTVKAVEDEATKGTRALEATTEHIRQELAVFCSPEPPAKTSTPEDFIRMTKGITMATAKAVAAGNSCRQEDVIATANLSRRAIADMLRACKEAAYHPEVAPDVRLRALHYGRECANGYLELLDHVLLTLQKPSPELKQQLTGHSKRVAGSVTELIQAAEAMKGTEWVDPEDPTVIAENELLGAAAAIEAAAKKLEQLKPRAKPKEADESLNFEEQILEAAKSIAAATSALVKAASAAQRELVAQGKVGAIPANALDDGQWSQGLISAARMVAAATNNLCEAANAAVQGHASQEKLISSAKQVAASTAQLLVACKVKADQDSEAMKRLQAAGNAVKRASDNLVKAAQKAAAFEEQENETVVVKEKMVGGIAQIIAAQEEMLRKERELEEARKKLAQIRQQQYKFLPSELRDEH
# UniProt Q92973: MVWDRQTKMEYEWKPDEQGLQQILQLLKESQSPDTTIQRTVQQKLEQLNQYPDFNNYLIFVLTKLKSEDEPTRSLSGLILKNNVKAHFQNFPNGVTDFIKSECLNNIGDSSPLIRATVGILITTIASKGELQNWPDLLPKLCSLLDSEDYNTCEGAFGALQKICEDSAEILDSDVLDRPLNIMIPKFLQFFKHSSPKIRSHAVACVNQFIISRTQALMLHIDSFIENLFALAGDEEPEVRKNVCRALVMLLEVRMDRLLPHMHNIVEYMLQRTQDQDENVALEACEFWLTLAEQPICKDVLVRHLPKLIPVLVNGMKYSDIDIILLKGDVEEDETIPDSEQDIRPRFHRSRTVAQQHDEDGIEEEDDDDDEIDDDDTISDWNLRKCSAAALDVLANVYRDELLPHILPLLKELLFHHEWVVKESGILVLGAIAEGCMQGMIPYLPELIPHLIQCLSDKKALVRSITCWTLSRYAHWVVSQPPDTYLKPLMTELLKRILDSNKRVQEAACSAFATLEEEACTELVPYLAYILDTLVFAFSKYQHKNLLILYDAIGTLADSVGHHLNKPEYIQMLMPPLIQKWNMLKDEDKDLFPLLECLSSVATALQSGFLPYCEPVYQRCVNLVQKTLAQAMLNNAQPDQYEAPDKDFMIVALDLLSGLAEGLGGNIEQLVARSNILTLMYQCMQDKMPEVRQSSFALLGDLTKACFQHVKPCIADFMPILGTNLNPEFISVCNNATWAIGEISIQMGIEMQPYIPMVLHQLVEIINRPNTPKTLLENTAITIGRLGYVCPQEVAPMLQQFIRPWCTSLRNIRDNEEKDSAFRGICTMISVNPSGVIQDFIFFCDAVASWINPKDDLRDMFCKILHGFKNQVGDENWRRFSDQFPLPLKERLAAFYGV
# UniProt Q9Y3A6: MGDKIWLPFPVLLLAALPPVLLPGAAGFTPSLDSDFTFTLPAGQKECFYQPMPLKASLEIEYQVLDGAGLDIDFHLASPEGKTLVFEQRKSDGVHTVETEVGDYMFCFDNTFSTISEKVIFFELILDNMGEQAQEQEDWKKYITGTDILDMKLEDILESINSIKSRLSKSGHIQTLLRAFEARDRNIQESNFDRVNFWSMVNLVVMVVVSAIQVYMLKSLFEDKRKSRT
# UniProt Q9NX78: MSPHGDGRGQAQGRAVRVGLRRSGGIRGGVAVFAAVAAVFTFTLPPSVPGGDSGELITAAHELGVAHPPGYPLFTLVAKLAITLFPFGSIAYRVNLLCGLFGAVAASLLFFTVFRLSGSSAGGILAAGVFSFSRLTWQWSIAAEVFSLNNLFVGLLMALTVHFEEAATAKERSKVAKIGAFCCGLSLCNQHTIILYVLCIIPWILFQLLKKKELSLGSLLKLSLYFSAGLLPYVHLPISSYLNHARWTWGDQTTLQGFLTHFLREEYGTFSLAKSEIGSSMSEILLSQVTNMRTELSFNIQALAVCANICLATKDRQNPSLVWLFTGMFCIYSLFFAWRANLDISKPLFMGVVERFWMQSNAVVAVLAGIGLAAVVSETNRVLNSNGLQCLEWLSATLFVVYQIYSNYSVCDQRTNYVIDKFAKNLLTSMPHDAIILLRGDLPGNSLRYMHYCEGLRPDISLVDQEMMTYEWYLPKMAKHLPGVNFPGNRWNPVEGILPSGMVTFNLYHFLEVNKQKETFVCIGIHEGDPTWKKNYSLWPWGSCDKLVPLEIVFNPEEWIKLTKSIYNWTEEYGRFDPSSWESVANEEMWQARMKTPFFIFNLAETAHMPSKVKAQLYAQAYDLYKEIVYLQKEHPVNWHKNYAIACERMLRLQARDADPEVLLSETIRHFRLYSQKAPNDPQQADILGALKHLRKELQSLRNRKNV
# UniProt Q8IY95: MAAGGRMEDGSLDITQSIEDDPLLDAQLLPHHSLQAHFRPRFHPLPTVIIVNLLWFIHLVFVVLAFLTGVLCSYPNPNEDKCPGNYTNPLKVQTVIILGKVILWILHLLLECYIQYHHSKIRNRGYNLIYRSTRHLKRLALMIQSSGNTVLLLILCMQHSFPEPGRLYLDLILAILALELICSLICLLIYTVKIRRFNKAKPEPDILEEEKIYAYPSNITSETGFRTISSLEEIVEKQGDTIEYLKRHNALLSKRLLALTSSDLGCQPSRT
# UniProt Q9Y2C9: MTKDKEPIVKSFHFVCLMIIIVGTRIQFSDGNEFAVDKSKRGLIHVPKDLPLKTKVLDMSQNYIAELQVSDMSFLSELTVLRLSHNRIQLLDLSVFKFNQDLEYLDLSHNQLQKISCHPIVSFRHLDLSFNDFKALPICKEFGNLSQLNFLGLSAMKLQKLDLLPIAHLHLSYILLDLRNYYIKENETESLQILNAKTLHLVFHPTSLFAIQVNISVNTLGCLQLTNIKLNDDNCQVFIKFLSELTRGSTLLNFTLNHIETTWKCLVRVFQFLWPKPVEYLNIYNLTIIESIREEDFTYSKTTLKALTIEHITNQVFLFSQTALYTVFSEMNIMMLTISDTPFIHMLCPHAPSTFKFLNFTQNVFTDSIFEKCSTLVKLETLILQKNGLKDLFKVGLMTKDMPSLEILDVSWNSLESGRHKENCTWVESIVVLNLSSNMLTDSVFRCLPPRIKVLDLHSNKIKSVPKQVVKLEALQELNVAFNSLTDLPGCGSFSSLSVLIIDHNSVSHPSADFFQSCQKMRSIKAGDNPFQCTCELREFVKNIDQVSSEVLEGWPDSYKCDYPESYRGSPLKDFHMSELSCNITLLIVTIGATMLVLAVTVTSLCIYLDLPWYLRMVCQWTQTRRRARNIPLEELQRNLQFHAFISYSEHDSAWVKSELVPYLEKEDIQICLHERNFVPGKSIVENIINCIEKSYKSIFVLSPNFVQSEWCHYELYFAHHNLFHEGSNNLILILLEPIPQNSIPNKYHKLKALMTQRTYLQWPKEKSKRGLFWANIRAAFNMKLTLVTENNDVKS
# UniProt Q03169: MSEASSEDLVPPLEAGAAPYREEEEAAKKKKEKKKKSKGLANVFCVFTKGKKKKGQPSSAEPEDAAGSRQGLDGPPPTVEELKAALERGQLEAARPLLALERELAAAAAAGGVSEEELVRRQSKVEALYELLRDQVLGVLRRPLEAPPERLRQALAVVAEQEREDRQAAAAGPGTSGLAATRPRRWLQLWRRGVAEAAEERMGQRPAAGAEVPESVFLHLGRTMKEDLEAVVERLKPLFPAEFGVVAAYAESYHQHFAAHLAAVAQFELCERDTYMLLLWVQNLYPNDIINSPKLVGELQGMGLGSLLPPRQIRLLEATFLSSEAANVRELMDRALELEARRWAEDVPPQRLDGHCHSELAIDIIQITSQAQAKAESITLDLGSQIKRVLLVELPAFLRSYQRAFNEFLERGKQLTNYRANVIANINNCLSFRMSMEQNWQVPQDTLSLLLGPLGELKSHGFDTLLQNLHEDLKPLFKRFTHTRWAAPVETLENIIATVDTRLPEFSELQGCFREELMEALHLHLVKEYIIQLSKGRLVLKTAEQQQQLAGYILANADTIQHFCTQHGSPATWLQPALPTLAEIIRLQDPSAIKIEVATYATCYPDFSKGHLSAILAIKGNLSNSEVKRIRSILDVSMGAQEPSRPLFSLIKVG
# UniProt Q15785: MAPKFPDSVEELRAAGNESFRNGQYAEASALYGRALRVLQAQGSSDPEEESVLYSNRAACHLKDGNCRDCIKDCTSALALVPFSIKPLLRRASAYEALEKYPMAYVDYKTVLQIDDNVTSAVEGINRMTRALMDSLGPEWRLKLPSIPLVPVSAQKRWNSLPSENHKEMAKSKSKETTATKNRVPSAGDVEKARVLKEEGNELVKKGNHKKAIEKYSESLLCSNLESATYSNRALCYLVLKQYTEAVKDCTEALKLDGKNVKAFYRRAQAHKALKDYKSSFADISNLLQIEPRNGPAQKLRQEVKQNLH
# Compound: CC1Cc2ccccc2N1C(=O)C1CCCN(C1)C(=O)CCl (mixture of isomers) [TRIM25 ligand 11 (diastereomer mixture)]
# Experiment: probe-labelled cysteine peptide fold change vs DMSO (competition) (log2 fold change); higher = less target engagement (more negative = stronger competition)
# Settings: 50 µM; THP-1; incubation time: 4 h
# 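Note: competitive chemoproteomic profiling in live THP-1 cells with an iodoacetamide desthiobiotin (IA-DTB) probe, comparing probe-labelled peptide intensities in compound-treated cells against DMSO-treated controls.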
row,Target,probe-labelled cysteine peptide fold change
1,TNFAIP3_P21580_158_SQEFVETGLCYDTR (UniProt P21580),-0.0429
2,TLN1_Q9Y490_750_AVEGCVSASQAATEDGQLLR (UniProt Q9Y490),0.331
3,TLN1_Q9Y490_1939_AGALQCSPSDAYTK (UniProt Q9Y490),-0.0498
4,TNPO1_Q92973_142+153_LCSLLDSEDYNTCEGAFGALQK (UniProt Q92973),-0.167
5,TMED5_Q9Y3A6_47_ECFYQPMPLK (UniProt Q9Y3A6),-0.297
6,TMEM94_Q12767_674_LSCVTK (UniProt Q12767),-0.15
7,TLN1_Q9Y490_243_ACEFAGFQCQIQFGPHNEQK (UniProt Q9Y490),0.0484
8,TMEM260_Q9NX78_647_NYAIACER (UniProt Q9NX78),0.0162
9,TMEM192_Q8IY95_266_RLLALTSSDLGCQPSR (UniProt Q8IY95),0.126
10,TLN2_Q9Y4G6_289_NCGEMSEIEAK (UniProt Q9Y4G6),0.0134
11,TLR6_Q9Y2C9_672_EDIQICLHER (UniProt Q9Y2C9),0.109
12,TMEM192_Q8IY95_266_LLALTSSDLGCQPSR (UniProt Q8IY95),-0.0946
13,TOPBP1_Q92547_60_SLYICDPFSGVVFDHLKK (UniProt Q92547),0.0808
14,TNFAIP2_Q03169_356_LDGHCHSELAIDIIQITSQAQAK (UniProt Q03169),-0.118
15,TOMM34_Q15785_250_DCTEALK (UniProt Q15785),-0.0878
16,TONSL_Q96HA7_30_REEAALCHQLGELLAGHGR (UniProt Q96HA7),0.136

# Another view of some results above:
row	Target	probe-labelled cysteine peptide fold change
4	TNPO1_Q92973_142+153_LCSLLDSEDYNTCEGAFGALQK (UniProt Q92973)	-0.167
5	TMED5_Q9Y3A6_47_ECFYQPMPLK (UniProt Q9Y3A6)	-0.297

# Reference: the supplement of paper PMC12067093, “Discovery and optimisation of a covalent ligand for TRIM25 and its application to targeted protein ubiquitination” (Chemical Science, 2025)
